Assay results as given in article PMC7819943, “Rice protein-binding microarrays: a tool to detect cis-acting elements near promoter regions in rice”.
Some of the results follow.

By UniProt entry, the sequences of proteins in these tests, tags left out.
UniProt Q0JBA9, entry or part of it: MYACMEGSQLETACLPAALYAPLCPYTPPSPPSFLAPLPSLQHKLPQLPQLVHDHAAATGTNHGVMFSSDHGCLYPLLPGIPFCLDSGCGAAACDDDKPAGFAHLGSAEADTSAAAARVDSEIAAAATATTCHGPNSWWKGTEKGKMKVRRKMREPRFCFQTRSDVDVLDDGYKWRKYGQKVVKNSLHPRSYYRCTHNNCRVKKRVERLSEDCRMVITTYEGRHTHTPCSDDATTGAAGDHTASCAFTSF

Biological target: OsWRKY34 (Oryza sativa, UniProt Q0JBA9 1-250)
Assay: protein-binding microarray (RPBM); PBS, 2% BSA, 51.3 ng/ul salmon testes DNA, 50 uM zinc acetate, 200 nM TF, 25 C, 1 h; high values mean tight binding
Details: protein: recombinant; tags: N-terminal polyhistidine and DsRed monomer fusion (pET32a); label: CyDye5-dUTP incorporated in the synthesized complementary strand; 3' TTTTT single-stranded linker to array surface; dsDNA, one strand shown
Outline: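 Using Ni–NTA, transcription factors fused N-terminally to polyhistidine and DsRed were purified after expression in E. coli BL21-CodonPlus. These were incubated at 200 nM with a blocked, double-stranded custom Agilent array for 1 h at 25 °C in a buffer containing 50 µM zinc acetate, and the array was washed. The binding signal is per-feature fluorescence intensity (arbitrary units) on an Axon 4000B scanner.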

Sequence | binding signal
GGCTGCTCATTGTCGTCTCATCTGGGCTTTTCAATGGGCTCGGAGTCACCTAGTGCAG | 8590 fluorescence intensity (a.u.)
ATATTTTTTCTGTGTTTTGCAATCTTCTATTTTACACTTTCGGAGTCACCTAGTGCAG | 11200 fluorescence intensity (a.u.)
ATGCGTGTGGTTCTCCTGTCCGTTCTGTCATTTGGGTTTTCGGAGTCACCTAGTGCAG | 20000 fluorescence intensity (a.u.)
TTAATTGGTCAGTCATCAGTGTGTGTTAGGAACGTACGTACGGAGTCACCTAGTGCAG | 8360 fluorescence intensity (a.u.)
GAGAACTTGGCGGCCACCGCCTGACGGAGCCCGGGGCTCCCGGAGTCACCTAGTGCAG | 8300 fluorescence intensity (a.u.)
GCGTTGACCTATTGACTCGTGTCGCCGTCTCGCCGAGCGACGGAGTCACCTAGTGCAG | 9440 fluorescence intensity (a.u.)
AATGATTCCCGGCCTCTTCATTTCGCTTATGCATATACTTCGGAGTCACCTAGTGCAG | 12100 fluorescence intensity (a.u.)
AGTTTTCTCTCCCATTTTGGCTTCGCCCCACCCACTGCCTCGGAGTCACCTAGTGCAG | 10900 fluorescence intensity (a.u.)
CCGCCCCGACCACCGGCGGCCGCCGACACGATGTCCTCGCCGGAGTCACCTAGTGCAG | 8660 fluorescence intensity (a.u.)
TTCGTGTATTTATGGGGTTAATTTTATTCGATTTTGAGTTCGGAGTCACCTAGTGCAG | 11000 fluorescence intensity (a.u.)
GTGGGATTTGACTAAAATAATAAATCGGGTATTTCCCTTCCGGAGTCACCTAGTGCAG | 8430 fluorescence intensity (a.u.)
TGCGAGCCTTGCTAGTTGCTCCGTCCGCTGTTTCGTGATACGGAGTCACCTAGTGCAG | 10100 fluorescence intensity (a.u.)
CGAGTCACCCAGCCCAGCCAGCGCGCGCGACACGACGAAACGGAGTCACCTAGTGCAG | 8910 fluorescence intensity (a.u.)
CCATTATGGTGTTTCTTAGTTGTTTTTTTTGCCTTTTACTCGGAGTCACCTAGTGCAG | 8470 fluorescence intensity (a.u.)
TTTGTTCCATTTATACGACTAATTTTTCTGTCTACAATTTCGGAGTCACCTAGTGCAG | 12700 fluorescence intensity (a.u.)
CTTCACCCATTGCAACACACGTGTATTTTTTCTAGTAAAACGGAGTCACCTAGTGCAG | 11000 fluorescence intensity (a.u.)
CCACATATTGTGCTTGTAGCCTAGGCACGACACGGCCCGTCGGAGTCACCTAGTGCAG | 8450 fluorescence intensity (a.u.)
CCATTTACACAGCAGGGGCGGAGATATTATTTTAGGTGGGCGGAGTCACCTAGTGCAG | 8260 fluorescence intensity (a.u.)
TTCTTCCTGCAATGGCCTTATTCTCTACATTAATCTGATTCGGAGTCACCTAGTGCAG | 9150 fluorescence intensity (a.u.)
CATTCATCCATCTGAAGCAGACGCCTTTGCTTTCCTCCTGCGGAGTCACCTAGTGCAG | 9010 fluorescence intensity (a.u.)
TTTCTTTTGCATTTCTTGCTGCAGTACTGTTGCATCAATACGGAGTCACCTAGTGCAG | 9630 fluorescence intensity (a.u.)

Sequence | binding signal
GTACCTCTTGTCCGTATGGCCGCATGTGTCATCCGCGTCGCGGAGTCACCTAGTGCAG | 9570 fluorescence intensity (a.u.)
TCCCTTTATTCTTTATGCAAATGTCTCTTTCCTTTCAATCCGGAGTCACCTAGTGCAG | 10800 fluorescence intensity (a.u.)
GACCATACGTACCTCTTTGCCATAGACCTCACCAGTTGCGCGGAGTCACCTAGTGCAG | 8930 fluorescence intensity (a.u.)
AATCGGATTGTGCGATGATCAACTTGGCCTCTTTTCATGCCGGAGTCACCTAGTGCAG | 8060 fluorescence intensity (a.u.)
AAACAGATTAAAATTATCTCGGTTTCTATTAGCATGTTTTCGGAGTCACCTAGTGCAG | 8540 fluorescence intensity (a.u.)
ATCATTCAGGTACATCAATTACCAACCACTGAATGTTTGTCGGAGTCACCTAGTGCAG | 8210 fluorescence intensity (a.u.)
CGCTCGCCATCTTCCCGACCCTCGCCGGCCGCCTTGTCACCGGAGTCACCTAGTGCAG | 8450 fluorescence intensity (a.u.)
CTTCTTCTCGGCTGATTGCTCTTTTTTCCCAGATTTGTCTCGGAGTCACCTAGTGCAG | 13100 fluorescence intensity (a.u.)
GATCCGCGAGATCTCCGTCGCCGGCTCATGCCACTGGTCGCGGAGTCACCTAGTGCAG | 8240 fluorescence intensity (a.u.)
AACTTGCGAAAATTTGACTATCAATTAGCTGGGCGATTGACGGAGTCACCTAGTGCAG | 32700 fluorescence intensity (a.u.)
GGAATCCTTTCCACCATCCCACTTCCACCTTTCTTCTTCTCGGAGTCACCTAGTGCAG | 8970 fluorescence intensity (a.u.)
GTTGGTGTCCATCCGTTTCCGAGCCATTTTCATCCCTAATCGGAGTCACCTAGTGCAG | 11600 fluorescence intensity (a.u.)
TTCACCTACCCTTTACATTACCACTCGACTACACATTTATCGGAGTCACCTAGTGCAG | 9160 fluorescence intensity (a.u.)
GCCCACATGCACGTACTTAACGCCCACCTGCACTCGACGTCGGAGTCACCTAGTGCAG | 9370 fluorescence intensity (a.u.)
GCGAACCTGCCTCCTCGTCGTCGTCGTGGTCTATATATTACGGAGTCACCTAGTGCAG | 9230 fluorescence intensity (a.u.)
CAGCAAGAGTTTCCACCTCTACACAATCCTGTTGTATCTACGGAGTCACCTAGTGCAG | 8240 fluorescence intensity (a.u.)
TTGCTGCATCCGTTACTCCGTTAGGGTTGGGGAATTTGGTCGGAGTCACCTAGTGCAG | 12900 fluorescence intensity (a.u.)
TGTCAGTTGACCGCTATTAATTAGTTCAGGCCGTGTTTAGCGGAGTCACCTAGTGCAG | 9060 fluorescence intensity (a.u.)
CGGGATACAATATACTATTAGGGGTGAAAATGAATTAGATCGGAGTCACCTAGTGCAG | 9250 fluorescence intensity (a.u.)
GCCTTAACCTTGATACTGATAACAGTTTGTTTGTTCCCAACGGAGTCACCTAGTGCAG | 10800 fluorescence intensity (a.u.)
GGTTGGTCCTGGTTTTGGAGGTAGGTAAATTTTGGGACCACGGAGTCACCTAGTGCAG | 9300 fluorescence intensity (a.u.)

Sequence | binding signal
GTTTGATTTTGGGAGCTCCAGTTGTTTTCTTCTCCTCCTTCGGAGTCACCTAGTGCAG | 10100 fluorescence intensity (a.u.)
GGAGGTGGTGCAGAATGCCTGGGAGTCGGTGCAGTAGGGGCGGAGTCACCTAGTGCAG | 8450 fluorescence intensity (a.u.)
ATTCCGATGGCTATATACGGTATTCCGCGTGCACACTAACCGGAGTCACCTAGTGCAG | 10500 fluorescence intensity (a.u.)
TTCTTTCTTTTTTCTTTCTCTCCAAGGCTAATGAATGTTTCGGAGTCACCTAGTGCAG | 8560 fluorescence intensity (a.u.)
TAGGAACCTATTTTCCATGCGCACACATCTCAAAATGTTACGGAGTCACCTAGTGCAG | 8920 fluorescence intensity (a.u.)
TAATAGGTGGGCGGTGGATTTTTCGCCGTGGTGCTCTTTACGGAGTCACCTAGTGCAG | 9870 fluorescence intensity (a.u.)
CTCACTTCGACCCCTGTTCGCTTCACCCGCCGCCGCCATGCGGAGTCACCTAGTGCAG | 8220 fluorescence intensity (a.u.)
GTATTTTGCAATCCTCTGTTTTACACTTGCATTCCTATCCCGGAGTCACCTAGTGCAG | 11900 fluorescence intensity (a.u.)
CCCACCCACCTCTCCACATTCCGTTCCGCTGGCGTCCAAACGGAGTCACCTAGTGCAG | 9280 fluorescence intensity (a.u.)
CTCTTCCACAAGATTACCTCCATGCATTGGATGTTGTGTTCGGAGTCACCTAGTGCAG | 8030 fluorescence intensity (a.u.)
GGGTTTTCCACGTTAAATCTCGTGTCTTCTGTGTTTGATCCGGAGTCACCTAGTGCAG | 12000 fluorescence intensity (a.u.)
AGAGTCGGTCACTTTCTCGGTCGGGTTCTCGGGTCACCGTCGGAGTCACCTAGTGCAG | 11400 fluorescence intensity (a.u.)
TTTCTTCTGAATTCGATGTCTGATGCATTTATCGTTTCTCCGGAGTCACCTAGTGCAG | 13000 fluorescence intensity (a.u.)
GATAATCCTTGATCCACCATGTCGTGTGAATTTTTGTTCACGGAGTCACCTAGTGCAG | 8190 fluorescence intensity (a.u.)
TAGTTCAGTGCCGTCTCCTTCATGTAATTCTCTTCACTTTCGGAGTCACCTAGTGCAG | 9290 fluorescence intensity (a.u.)
TCTTACGAGTAGTGGCAATGTCACCCTCACACTTTTTCTTCGGAGTCACCTAGTGCAG | 8770 fluorescence intensity (a.u.)
GTCTTATATGGTTTATAAATTGTTGCCTTTTAAACCTTAACGGAGTCACCTAGTGCAG | 8310 fluorescence intensity (a.u.)
AAATTTTACTTGTTTTTCCATGTCGGCATTGTGCCTCTCACGGAGTCACCTAGTGCAG | 8400 fluorescence intensity (a.u.)
TCTCTTCTTTTTGACCTCTTCTCTCTTATCTTCTCTTCTTCGGAGTCACCTAGTGCAG | 9000 fluorescence intensity (a.u.)
TTTCTCAACCGTGCTAGATCTTGCCTCTGCGTAGCGTAAGCGGAGTCACCTAGTGCAG | 8910 fluorescence intensity (a.u.)
ACGCCACACCGCTCTCGCCCGCCGACGCCGCCTCTCCGCACGGAGTCACCTAGTGCAG | 11900 fluorescence intensity (a.u.)

A section taken from the entries so far, as a working copy:
Sequence | binding signal
CTCTTCCACAAGATTACCTCCATGCATTGGATGTTGTGTTCGGAGTCACCTAGTGCAG | 8030 fluorescence intensity (a.u.)
GGGTTTTCCACGTTAAATCTCGTGTCTTCTGTGTTTGATCCGGAGTCACCTAGTGCAG | 12000 fluorescence intensity (a.u.)
AGAGTCGGTCACTTTCTCGGTCGGGTTCTCGGGTCACCGTCGGAGTCACCTAGTGCAG | 11400 fluorescence intensity (a.u.)
TTTCTTCTGAATTCGATGTCTGATGCATTTATCGTTTCTCCGGAGTCACCTAGTGCAG | 13000 fluorescence intensity (a.u.)

(continued)

Sequence | binding signal
CACCTCACCCTCACCCGCACACGCCGACACCCCGACGCGTCGGAGTCACCTAGTGCAG | 9390 fluorescence intensity (a.u.)
GTGCCGTCGCCTCCCCTTCCCCGGCCTGCCCTCGGTTTCGCGGAGTCACCTAGTGCAG | 9310 fluorescence intensity (a.u.)
TCATTGCCTCTCCTCACCAAAGGGGCCGTCCTCTTCCATCCGGAGTCACCTAGTGCAG | 8720 fluorescence intensity (a.u.)
ACTCGGAGTCGTCTCCTCCCTCCGTCAGCGCTTCCATCTTCGGAGTCACCTAGTGCAG | 8880 fluorescence intensity (a.u.)
ACCATGTTGAATTTCTTTGCCATTTGCCTCTTGTTTTTTCCGGAGTCACCTAGTGCAG | 12200 fluorescence intensity (a.u.)
CCTCGCCACCGCACGCGTCGCCCCGGCGCCGCTTCCCCTGCGGAGTCACCTAGTGCAG | 9290 fluorescence intensity (a.u.)
TGGGTATATTTTCACATGCATCCTTTAATTGTCACTTTTGCGGAGTCACCTAGTGCAG | 11800 fluorescence intensity (a.u.)
GCACGTACGCCCATCTTTGTCAGTTTTCTCTTGGCACCAACGGAGTCACCTAGTGCAG | 10500 fluorescence intensity (a.u.)
AAATACTCCCTCCGTATTTTAATGTATGACACCGTTGACTCGGAGTCACCTAGTGCAG | 10300 fluorescence intensity (a.u.)
TTGCGCCTCGCCGCCGATATCTCCCACCCGCGTCGCTGCTCGGAGTCACCTAGTGCAG | 10500 fluorescence intensity (a.u.)
ACTGTTTACAGTACGGCACAACCGTTTTAAGCTACTTTTCCGGAGTCACCTAGTGCAG | 9360 fluorescence intensity (a.u.)
CTATGGAGAGAGTATCACATTTTATTCTTCTAGATATACTCGGAGTCACCTAGTGCAG | 8610 fluorescence intensity (a.u.)
AGCTAGAATTGACCACAAGCTTGTACTTCCGGCATGTATTCGGAGTCACCTAGTGCAG | 9270 fluorescence intensity (a.u.)
GACATAACCACATAACCACACGACCTTGCATTCGGGTTGACGGAGTCACCTAGTGCAG | 8220 fluorescence intensity (a.u.)
TCCATAAGAGTCATTCTACTTTCGAAAAGAACATGCCAACCGGAGTCACCTAGTGCAG | 8120 fluorescence intensity (a.u.)
AACTTCCTTCACGGGCTGCAGCTTCGCGCCACGAGCCTTTCGGAGTCACCTAGTGCAG | 8060 fluorescence intensity (a.u.)
TCTTCATCATTTTTTTATTCAATCCATTCTATGCCATCAACGGAGTCACCTAGTGCAG | 8170 fluorescence intensity (a.u.)
TCGGGTCTGTGCTGTGCTCTTCCTAATTGGTTTGATTTTACGGAGTCACCTAGTGCAG | 10300 fluorescence intensity (a.u.)
TCTCTTACTACCTTCCACGCTTCCATCCCACGTCTTCTCCCGGAGTCACCTAGTGCAG | 8560 fluorescence intensity (a.u.)
GTGGCTCTATACTATCATCCGCGTTATTTCCTGTGCATAACGGAGTCACCTAGTGCAG | 11500 fluorescence intensity (a.u.)
GTCTCGGTCTTTTCGATCTCGGTCTTTTCGGTTCGGTCTTCGGAGTCACCTAGTGCAG | 9340 fluorescence intensity (a.u.)
